Assay [1] has as its target human NRP-1 expressed on COS cells (human) (UniProt O14786). As to the kind of experiment: alkaline phosphatase-ligand cell-binding assay; COS cells transfected with mouse or human NRP-1, incubated with AP-conjugated Sema3A in the presence of Nb1 or control Nb BCII10; cell-bound AP revealed with p-nitrophenylphosphate, read at 405 nm.
Assay [2] addresses mouse NRP-1 expressed on COS cells (mouse) (UniProt P97333). The description is as above.
The target of assay [3] is T1, biotinylated recombinant mouse NRP1 (Phe22-Pro856) (mouse) (UniProt P97333).
T1 sequence (chain, biotin): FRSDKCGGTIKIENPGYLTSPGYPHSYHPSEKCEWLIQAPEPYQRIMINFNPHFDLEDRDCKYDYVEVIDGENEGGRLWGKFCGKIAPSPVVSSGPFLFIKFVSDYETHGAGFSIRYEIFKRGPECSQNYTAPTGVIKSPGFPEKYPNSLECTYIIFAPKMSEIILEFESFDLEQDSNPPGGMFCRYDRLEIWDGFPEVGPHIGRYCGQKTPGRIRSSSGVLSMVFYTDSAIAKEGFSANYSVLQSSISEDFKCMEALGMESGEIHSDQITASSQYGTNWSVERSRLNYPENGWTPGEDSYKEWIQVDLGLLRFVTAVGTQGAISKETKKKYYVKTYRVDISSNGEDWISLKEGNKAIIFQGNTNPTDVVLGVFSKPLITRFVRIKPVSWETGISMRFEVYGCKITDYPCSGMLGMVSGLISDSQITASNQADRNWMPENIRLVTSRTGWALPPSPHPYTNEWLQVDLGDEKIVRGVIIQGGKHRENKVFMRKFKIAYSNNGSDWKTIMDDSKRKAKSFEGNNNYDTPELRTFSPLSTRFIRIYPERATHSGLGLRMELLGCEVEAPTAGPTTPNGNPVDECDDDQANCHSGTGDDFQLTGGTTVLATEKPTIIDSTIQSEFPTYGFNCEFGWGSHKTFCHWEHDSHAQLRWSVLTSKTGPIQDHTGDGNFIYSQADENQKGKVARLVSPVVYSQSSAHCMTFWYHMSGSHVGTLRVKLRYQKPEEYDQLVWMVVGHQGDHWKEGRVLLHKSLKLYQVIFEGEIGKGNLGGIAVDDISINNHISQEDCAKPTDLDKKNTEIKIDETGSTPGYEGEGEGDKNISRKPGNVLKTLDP
As to the kind of experiment: AlphaScreen or HTRF; competition: biotinylated NRP1 (1.6 nM) with a dilution series of Nb1 or BCII10 for 1 h at room temperature, then human Sema3A-Fc (6 nM) for 1 h; streptavidin donor beads and anti-human IgG (Fc specific) acceptor beads; both purified. (In general: Alpha assays give light when donor and acceptor beads are brought close together.)

Assay [4] addresses T2, recombinant human NRP-1 (Phe22-Lys644) (human) (UniProt O14786).
T2 sequence (chain, biotin): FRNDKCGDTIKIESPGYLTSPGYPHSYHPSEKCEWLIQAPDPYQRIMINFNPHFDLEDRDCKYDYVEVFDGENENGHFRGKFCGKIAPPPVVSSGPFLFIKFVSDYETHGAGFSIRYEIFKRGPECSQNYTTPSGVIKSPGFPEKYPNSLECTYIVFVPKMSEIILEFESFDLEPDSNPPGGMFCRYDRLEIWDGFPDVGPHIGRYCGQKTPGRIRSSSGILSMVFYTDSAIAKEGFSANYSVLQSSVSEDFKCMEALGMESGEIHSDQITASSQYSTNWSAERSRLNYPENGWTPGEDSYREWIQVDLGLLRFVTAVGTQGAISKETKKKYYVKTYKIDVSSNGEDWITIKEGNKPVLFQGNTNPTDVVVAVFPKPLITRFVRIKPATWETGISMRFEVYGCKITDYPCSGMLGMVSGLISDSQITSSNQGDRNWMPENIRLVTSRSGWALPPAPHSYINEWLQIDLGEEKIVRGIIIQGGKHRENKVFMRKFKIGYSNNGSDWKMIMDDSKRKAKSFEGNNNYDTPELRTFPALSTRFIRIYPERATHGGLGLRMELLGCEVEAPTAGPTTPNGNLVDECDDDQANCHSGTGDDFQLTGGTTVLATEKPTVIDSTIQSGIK
The description is as above.

These are yes or no findings as the source states them, for the method shown. Some binding calls cover weakened binding; strength is not graded here. For some of these results: Where a sequence is shown, tags or fusion partners need not be part of it.

B1: alkaline phosphatase (AP)-conjugated Sema3A (ligand, UniProt Q14563 21-771)
chain: NYQNGKNNVPRLKLSYKEMLESNNVITFNGLANSSSYHTFLLDEERSRLYVGAKDHIFSFDLVNIKDFQKIVWPVSYTRRDECKWAGKDILKECANFIKVLKAYNQTHLYACGTGAFHPICTYIEIGHHPEDNIFKLENSHFENGRGKSPYDPKLLTASLLIDGELYSGTAADFMGRDFAIFRTLGHHHPIRTEQHDSRWLNDPKFISAHLISESDNPEDDKVYFFFRENAIDGEHSGKATHARIGQICKNDFGGHRSLVNKWTTFLKARLICSVPGPNGIDTHFDELQDVFLMNFKDPKNPVVYGVFTTSSNIFKGSAVCMYSMSDVRRVFLGPYAHRDGPNYQWVPYQGRVPYPRPGTCPSKTFGGFDSTKDLPDDVITFARSHPAMYNPVFPMNNRPIVIKTDVNYQFTQIVVDRVDAEDGQYDVMFIGTDVGTVLKVVSIPKETWYDLEEVLLEEMTVFREPTAISAMELSTKQQQLYIGSTAGVAQLPLHRCDIYGKACAECCLARDPYCAWDGSACSRYFPTAKRRTRRQDIRNGDPLTHCSDLHHDNHHGHSPEERIIYGVENSSTFLECSPKSQRALVYWQFQRRNEERKEEIRVDDHIIRTDQGLLLRSLQQKDSGNYLCHAVEHGFIQTLLKVTLEVIDTEHLEELLHKDDDGDGSKTKEMSNSMTPSQKVWYRDFMQLINHPNLNTMDEFCEQVWKRDRKQRRQRPGHTPGNSNKWKHLQENKKGRNRRTHEFERAPRSV
As to B1, the binding entry in assay [1] and in assay [2] was “binds” each time.

B2: human Sema3A-Fc (Fc fusion, UniProt Q14563 21-771)
chain: NYQNGKNNVPRLKLSYKEMLESNNVITFNGLANSSSYHTFLLDEERSRLYVGAKDHIFSFDLVNIKDFQKIVWPVSYTRRDECKWAGKDILKECANFIKVLKAYNQTHLYACGTGAFHPICTYIEIGHHPEDNIFKLENSHFENGRGKSPYDPKLLTASLLIDGELYSGTAADFMGRDFAIFRTLGHHHPIRTEQHDSRWLNDPKFISAHLISESDNPEDDKVYFFFRENAIDGEHSGKATHARIGQICKNDFGGHRSLVNKWTTFLKARLICSVPGPNGIDTHFDELQDVFLMNFKDPKNPVVYGVFTTSSNIFKGSAVCMYSMSDVRRVFLGPYAHRDGPNYQWVPYQGRVPYPRPGTCPSKTFGGFDSTKDLPDDVITFARSHPAMYNPVFPMNNRPIVIKTDVNYQFTQIVVDRVDAEDGQYDVMFIGTDVGTVLKVVSIPKETWYDLEEVLLEEMTVFREPTAISAMELSTKQQQLYIGSTAGVAQLPLHRCDIYGKACAECCLARDPYCAWDGSACSRYFPTAKRRTRRQDIRNGDPLTHCSDLHHDNHHGHSPEERIIYGVENSSTFLECSPKSQRALVYWQFQRRNEERKEEIRVDDHIIRTDQGLLLRSLQQKDSGNYLCHAVEHGFIQTLLKVTLEVIDTEHLEELLHKDDDGDGSKTKEMSNSMTPSQKVWYRDFMQLINHPNLNTMDEFCEQVWKRDRKQRRQRPGHTPGNSNKWKHLQENKKGRNRRTHEFERAPRSV
Turning to B2, the binding entry in assay [3] and in assay [4] was “binds” each time.

The record behind these values is publication PMC7760077.
